{"source": "PubChem BioAssay AID1347076", "about": "(National Center for Advancing Translational Sciences (NCATS), 2019)", "note": "Hit rate of the full screen: of about 400,000 compounds, about 13,000 (3.2%) were called active. The inconclusive results got no clear call from the source; some entries with a clear call stand among them for comparison. Calls come from the whole dose curve; as a rule, active = well fitted cell-killing curve with a large enough effect; inconclusive = small, poorly fitted or top-dose-only effect, or effect the other way; inactive = flat fitted curve, though single readings scatter. Potencies beside an inconclusive call are fits to weak or partial responses and may not hold up. Potency is the fitted concentration of half-maximal effect.", "data": [{"assay": "qHTS assay for MDR1-selective chemotherapeutics: Primary screen using the drug-selected MDR subline cells KB-V1; note: nearly all actives have a fitted effect of over 60% in size", "conditions": "KB-V1 MDR cells viability, CellTiter-Glo, 72 h; series mostly up to 46.1 µM", "how_it_was_run": "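Cytotoxicity via CellTiter-Glo luminescence after 72 h compound exposure at 37 degrees C. Cells: drug-selected KB-V1 line, DMEM phenol-red free plus 10% FBS. Compounds tested at multiple concentrations; normalized data fitted to concentration-effect curves.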", "values": [{"smiles": "COc1ccc2nc(Nc3nc(C)c(CCC(C)C)c(=O)[nH]3)nc(C)c2c1", "Potency": "inconclusive: 2.91 µM [cytotoxic, full curve]"}, {"smiles": "O=C(NNc1cc(N2CCOCC2)nc(N2CCOCC2)n1)c1ccc([N+](=O)[O-])cc1", "Potency": "inconclusive: 18.4 µM [rising, partial curve, poor fit]"}, {"smiles": "O=C(NNC(=O)C1CC(=O)N(c2ccc3c(c2)OCCO3)C1)c1ccc(F)cc1", "note": "(stereo not given)", "Potency": "inconclusive: 23.1 µM [rising, single point]"}, {"smiles": "CC(=O)c1ccc(NC(=O)c2nc(-c3ccc(C)cc3)n3c2CCCCC3)cc1", "Potency": "active: 20.6 µM"}, {"smiles": "C#CCNC(=O)C1=C[C@@H](c2ccc(C#C)cc2)C[C@@H](OCCCCO)O1", "Potency": "inconclusive: 16.4 µM [rising, partial curve]"}, {"smiles": "CCOC(=O)c1c(-c2ccccc2)csc1NC(=O)c1ccc(S(=O)(=O)N2CC(C)OC(C)C2)cc1", "note": "(stereo not given)", "Potency": "inconclusive: 2.59 µM [cytotoxic, full curve]"}, {"smiles": "O=C(COc1ccc(Br)cc1CO)N1CCCc2ccccc21", "Potency": "inconclusive: 18.4 µM [cytotoxic, partial curve]"}, {"smiles": "COc1ccc(NC(=S)N2CCN(Cc3cccc(F)c3)CC2)c(OC)c1", "Potency": "inconclusive: 16.4 µM [cytotoxic, partial curve, poor fit]"}, {"smiles": "Cc1cccc(N2CCN(C(=O)Cc3ccc(-n4c(=O)[nH]c5ccsc5c4=O)cc3)CC2)c1C", "Potency": "active: 14.6 µM"}, {"smiles": "COc1ccccc1CNS(=O)(=O)c1ccc(NC(C)=O)cc1", "Potency": "inconclusive: 23.1 µM [cytotoxic, single point]"}, {"smiles": "Cc1ccccc1OCC(=O)Nc1ccc2nc(SCc3ccccc3)sc2c1", "Potency": "inconclusive: 18.4 µM [rising, single point]"}, {"smiles": "Cc1ccccc1C(=O)N1CCN(c2ccc(NC(=O)c3ccc4c(c3)OCCO4)cc2)CC1", "Potency": "active: 8.2 µM"}, {"smiles": "O=C(O)c1ccc(NC(=S)N2CCCCC2)cc1", "Potency": "inconclusive: 0.0291 µM [cytotoxic, full curve, poor fit]"}, {"smiles": "COc1nc(Nc2cccc(C)c2)nc(N2CCCCC2)n1", "Potency": "inconclusive: 18.4 µM [cytotoxic, single point]"}, {"smiles": "COC(=O)c1cc2nc(-c3ccccc3)cc(C)n2n1", "Potency": "inactive"}, {"smiles": "O=C(Cc1csc(Nc2nc(=S)[nH]c3ccccc23)n1)N1CCN(c2cccc(C(F)(F)F)c2)CC1", "Potency": "active: 23.1 µM"}, {"smiles": "CCOC(=O)C1=C(CNCCOc2ccc(OC)cc2)NC(=O)NC1c1ccc2c(c1)OCO2", "note": "(stereo not given)", "Potency": "inconclusive: 23.1 µM [cytotoxic, single point]"}, {"smiles": "CN(C)c1ncnc2c1ncn2-c1ccccc1", "Potency": "inconclusive: 20.6 µM [cytotoxic, single point]"}, {"smiles": "CCN(CC)S(=O)(=O)c1ccc(-c2ccc(S(=O)(=O)N(CC)CC)cc2)cc1", "Potency": "inconclusive: 13 µM [cytotoxic, partial curve]"}, {"smiles": "Cc1c(C(=O)NCc2ccccc2C(F)(F)F)sc(=O)n1Cc1ccc(Cl)c(Cl)c1", "Potency": "inconclusive: 8.2 µM [cytotoxic, partial curve]"}, {"smiles": "Cc1ccc(NC(=O)c2ccccc2F)cc1S(=O)(=O)N1CCCCCC1", "Potency": "inconclusive: 10.3 µM [cytotoxic, partial curve]"}, {"smiles": "O=C(O)CCC(=O)Nc1cccc(-c2csc(-c3ccccc3)n2)c1", "Potency": "inactive"}, {"smiles": "O=C(C1CCCCC1)N1CCCC(c2nc3c(nnn3Cc3ccccc3)c(=O)[nH]2)C1", "note": "(stereo not given)", "Potency": "inconclusive: 23.1 µM [cytotoxic, single point]"}, {"smiles": "CCc1ccc(C(=O)NC(CC(C)C)C(=O)O)cc1", "note": "(stereo not given)", "Potency": "inconclusive: 12.6 µM [rising, partial curve, poor fit]"}, {"smiles": "COc1ccc(C(NC(=O)C2CCN(Cc3ccc(Oc4ccccc4)cc3)CC2)c2ccccn2)cc1", "note": "(stereo not given)", "Potency": "inactive"}, {"smiles": "CN(C)S(=O)(=O)c1cccc(NC(=O)CN(CCO)CC(=O)Nc2cccc(S(=O)(=O)N(C)C)c2)c1", "Potency": "inconclusive: 20.6 µM [rising, single point]"}, {"smiles": "CC(C)(C)[C@H]1CCC(=O)N(CCSc2ccc(Br)cc2)CC1", "Potency": "inconclusive: 16.4 µM [cytotoxic, single point]"}, {"smiles": "C=C(C)C(=O)Nc1cccc(C2=NOC3(C2)C[C@@H](C(N)=O)N(C(=O)C2(C)CC2)C3)c1", "note": "(stereo not given in full)", "Potency": "inconclusive: 16.4 µM [rising, partial curve]"}, {"smiles": "COC(=O)CN1C(=O)CC(C)(C)S(=O)c2ccccc21", "note": "(stereo not given)", "Potency": "inconclusive: 29.1 µM [rising, single point]"}, {"smiles": "CCCCn1c(N)c(N(CCOC)C(=O)c2nn(CC)c(=O)c3ccccc23)c(=O)[nH]c1=O", "Potency": "inactive"}, {"smiles": "O=C(CN(Cc1ccc(Br)cc1)S(=O)(=O)c1ccccc1)NCC1CCCO1", "note": "(stereo not given)", "Potency": "inconclusive: 8.2 µM [cytotoxic, partial curve]"}, {"smiles": "O=C(/C=C/c1ccccc1Br)c1ccc2c(c1)OCO2", "Potency": "inconclusive: 20.6 µM [cytotoxic, single point]"}, {"smiles": "O=C(Oc1ccc(OC(=O)N2CCOCC2)cc1)c1ccccc1", "Potency": "inconclusive: 2.59 µM [cytotoxic, partial curve, poor fit]"}, {"smiles": "Cc1ccc(-c2nn(-c3ccccc3)cc2/C=C(\\C#N)c2cccc(C#N)c2)o1", "Potency": "inactive"}, {"smiles": "CCCNC(=O)c1sc2c(c1C(=O)Nc1ccccn1)CCCC2", "Potency": "inconclusive: 3.26 µM [cytotoxic, full curve]"}, {"smiles": "CCOC(=O)c1c(C)n(CC(O)CN(CC)CC)c2cc(Br)c(OC)cc12", "note": "(stereo not given)", "Potency": "inconclusive: 16.4 µM [cytotoxic, partial curve, poor fit]"}, {"smiles": "O=C(NC(Cc1ccccc1)C(=O)O)/C(=C/c1ccc(Cl)cc1)NC(=O)c1ccccc1", "note": "(stereo not given)", "Potency": "inconclusive: 25.9 µM [rising, single point]"}, {"smiles": "COc1ccc(-c2noc(-c3ccccc3C(=O)Nc3cccc(OC)c3)n2)cc1", "Potency": "inconclusive: 13 µM [cytotoxic, partial curve]"}, {"smiles": "Cc1onc(-c2ccccc2)c1C(=O)Nc1ccccc1NC(=O)c1c(-c2ccccc2)noc1C", "Potency": "inconclusive: 6.51 µM [cytotoxic, partial curve]"}, {"smiles": "CCOc1ccc(OCCC(=O)OCC(=O)Nc2ccc3c(c2)OCO3)cc1", "Potency": "inconclusive: 29.1 µM [rising, single point]"}]}]}
